Measurements from paper PMC12670160, “A drug-repurposing screen of FDA- and EMA-approved drugs identifies two NF-κB inhibitors active against eumycetoma” (Journal of Antimicrobial Chemotherapy, 2025).
Structures can show the parent of a compound that is named as a salt. Where two headings read alike, the source gives them in different places. In all, about 5,300 compounds went through this assay and about 130 (2.5%) showed an effect of 50% or more. This is one part of the list. Bridge positions count the residues as written; N and C are the ends. Peptide text beside a SMILES is read from it.

Tested on: M. mycetomatis strain mm55
Conditions: 96 h, 2 µM
[1] = primary screen, metabolic activity vs growth control, inhibitor

SMILES	% viability (m. mycetomatis hyphae) [%]	% viability [1] [%]
CC(=O)NCCCOc1ccc(C(=O)N2CCC(N3C(=O)CCc4ccccc43)CC2)cc1 [ONC0002419, fuscoside]	92.96	
CC(N)Cc1c[nH]c2ccc(OCc3cccs3)cc12 (stereo not drawn) [ONC0001494, bw723c86]	82.05	
CCN[C@@H](C)Cc1cccc(C(F)(F)F)c1 [ONC0002357, dexfenfluramine]	75.24	
O[C@H]1[C@H]2[C@H](O)CCCN2C[C@H]1O [ONC0003483, swainsonine]	72	
Cc1ccccc1-n1c(CF)nc2ccc(N)cc2c1=O [ONC0003405, afloqualone]	71.52	
C/C=C/c1cc(OC)c(OC)cc1OC [ONC0003253, alphaasarone]	106.6	
C=CC[C@]1(O)CC[C@H]2[C@@H]3CCC4=CC(=O)CCC4=C3C=C[C@@]21C [ONC0004095, altrenogest]		142.2
C[C@]12CC[C@@H](O)C[C@@H]1CC[C@@H]1[C@@H]2CC[C@]2(C)C(=O)CC[C@@H]12 [ONC0002295, androsterone]	65.55	
CC(C)(C)[C@]1(O)C[C@@H]2OC(=O)C[C@@]23C(=O)O[C@@H]2OC(=O)[C@H](O)C213 (stereo partly drawn) [ONC0004934, bilobalide]	85.1	
CC(=O)O[C@H]1CC[C@@]2(C)C(=CC(=O)[C@@H]3[C@@H]2CC[C@]2(C)C(=O)CC[C@@H]32)C1 [ONC0002730, 7oxodehydroepiandrosterone acetate]	95.04	
COc1ccc2c(c1)[C@]13CCCC[C@@H]1[C@H](C2)N(C)CC3 [ONC0000542, dextromethorphan hydrobromide]	103	
CN1CCCC1CCSc1ccc(O)cc1 (stereo not drawn) [ONC0000801, sib1553a]	88.75	
CC(=O)N(C)c1cccc(-c2ccnc3c(C(=O)c4cccs4)cnn23)c1 [ONC0000812, indiplon]	81.71	
NC(=O)[C@@H](CC1CC1)[C@@H](CCC(F)(F)F)C(=O)N[C@H]1N=C(c2ccccc2)c2cccc(F)c2NC1=O [ONC0002103, bms983970]	61.26	
CCN(CC)C(=O)N[C@H]1C=C2c3cccc4[nH]cc(c34)C[C@H]2N(C)C1 [ONC0003438, lisuride maleate]	78.2	
C#C[C@]1(O)CC[C@H]2[C@@H]3CCC4=CC(=O)CC[C@]4(C)[C@H]3CC[C@@]21C [ONC0003155, ethisterone]		83.31
CC(C)CC(N(C)C)C1(c2ccc(Cl)cc2)CCC1 (stereo not drawn) [ONC0005560, sibutramine hydrochloride]	80.99	
C=CCN1CC[C@]23c4c5ccc(O)c4O[C@H]2/C(=N/NC(=O)c2ccccc2)CC[C@@]3(O)[C@H]1C5 [ONC0001752, naloxonebenzoylhydrazone]	85.15	
C[C@]12CC[C@H]3[C@@H](CCC4=CC(=O)CC[C@@H]43)[C@@H]1CC[C@@H]2O [ONC0001357, nandrolone]	96.54	
CNC(=NS(=O)(=O)c1ccc(Cl)cc1)N1CC(c2ccccc2)C(c2ccc(Cl)cc2)=N1 (stereo not drawn) [ONC0004486, slv319]	118.9	

SMILES	% viability (m. mycetomatis hyphae) [%]	% viability [1] [%]
c1ccc(CCCCN2CCC(c3ccccc3)CC2)cc1 [ONC0002517, 4ppbp]	93.65	
Cc1cc(O)ccc1Cl [ONC0000761, chlorocresol]	76.1	
NCC(CC(=O)O)c1ccccc1 (stereo not drawn) [ONC0002637, fenigam]	81.04	
C=C(C)[C@H]1CN[C@H](C(=O)O)[C@H]1CC(=O)O [ONC0002703, kainicacid]	80.33	
Cc1ccc(-c2nc3ccc(C)cn3c2CC(=O)N(C)C)cc1 [ONC0004167, zolpidem]	128.7	
CN[C@@H]1C[C@@H](c2ccc(Cl)c(Cl)c2)c2ccccc21 [ONC0001498, indatraline]	77.66	
O=C(O)Cc1cccnc1C(=O)O [ONC0001551, homoquinolinicacid]	85.08	
Clc1ccc(C2=CCCC3CCC2N3)cn1 (stereo not drawn) [ONC0001576, ub165]	86.54	
C[C@H](N)[C@H](O)c1ccc(O)c(O)c1 [ONC0000522, levonordefrin]	66.11	
CO[C@H]1[C@H](O)[C@H](O[C@H]2CC[C@@]3(C=O)[C@H](CC[C@@H]4[C@@H]3CC[C@]3(C)[C@@H](C5=CC(=O)OC5)CC[C@]43O)C2)O[C@@H](C)[C@@H]1O [ONC0005585, peruvoside]		87.82
COP(=O)(OC)OC(c1ccc(Cl)cc1)P(=O)(OC)OC (stereo not drawn) [ONC0000002, mifobate]	121.8	
CCCC(C)C1(CC)C(=O)NC(=O)NC1=O (stereo not drawn) [ONC0002314, pentobarbital]	69.82	
COC(=O)CC[C@@H]1N=C(c2ccccn2)c2cc(Br)ccc2-n2c(C)cnc21 [ONC0001123, remimazolam benzenesulfonate]	82.85	
O=c1n(Cl)c(=O)n(Cl)c(=O)n1Cl [ONC0005303, symclosene]	72.34	
O=C(NCC1CCOCC1)c1cnc(Nc2ccc(Cl)cc2Cl)nc1C(F)(F)F [ONC0005058, gw842166x]	79.97	
CC1=C(O)C(=O)[C@@H]2O[C@@H]2C1=O [ONC0001685, terreicacid]	61.38	
Cc1nn(C)c2c1C(c1cccc(Cl)c1)=NCCN2 [ONC0002188, zometapine]	94.55	
CN[C@@H](C)[C@H](O)c1ccccc1 [ONC0000749, ephedrine 1r2s hydrochloride]	84.07	
CSCC[C@H](NC(=O)[C@H](Cc1ccccc1)NC(=O)CNC(=O)CNC(=O)[C@@H](N)Cc1ccc(O)cc1)C(=O)O [ONC0003650, metenkephalin]	106	
NC1CCN(c2cccnc2)C1 (stereo not drawn) [ONC0003588, abt202]	151.6	

3 structures from above, ordered by molar mass, falling:
SMILES	% viability (m. mycetomatis hyphae) [%]	% viability [1] [%]
CN[C@@H]1C[C@@H](c2ccc(Cl)c(Cl)c2)c2ccccc21 [ONC0001498, indatraline]	77.66	
C=C(C)[C@H]1CN[C@H](C(=O)O)[C@H]1CC(=O)O [ONC0002703, kainicacid]	80.33	
C[C@H](N)[C@H](O)c1ccc(O)c(O)c1 [ONC0000522, levonordefrin]	66.11	

(listing goes on)

SMILES	% viability (m. mycetomatis hyphae) [%]	% viability [1] [%]
CN1CCCCC1Cn1cc(C(=O)c2cc([N+](=O)[O-])ccc2I)c2ccccc21 (stereo not drawn) [ONC0004629, am1241]	73.52	
Oc1ccc2c3c1O[C@H]1c4[nH]c5ccccc5c4C[C@@]4(O)[C@@H](C2)N(CC2CC2)CC[C@]314 [ONC0001519, naltrindole]	93.26	
O=C(O)CCCO [ONC0003295, sodium oxybate]	77.46	
CC(N)Cc1ccc(O)cc1 (stereo not drawn) [ONC0003776, hydroxyamphetamine]	86.52	
CC(=O)[C@H]1CC[C@H]2[C@@H]3CC[C@H]4C[C@H](O)CC[C@]4(C)[C@H]3CC[C@]12C [ONC0001903, 353hydroxypregnan20one]	61.39	
CN1CCN(C(=O)O[C@H]2c3nccnc3C(=O)N2c2ccc(Cl)cn2)CC1 [ONC0002782, eszopiclone]	79.72	
CC(C)(O)[C@H]1[C@@H]2OC(=O)[C@@H]1[C@]1(O)C[C@H]3O[C@]34C(=O)O[C@H]2[C@]14C [ONC0002779, picrotin]	109.3	
C[C@@H]1NC(=O)[C@@H]2CCCN2C(=O)[C@H](CC(N)=O)NC(=O)[C@@H]2CSSC[C@H](N)C(=O)N[C@H]3CSSC[C@H](NC1=O)C(=O)N[C@@H]([C@@H](C)O)C(=O)NCC(=O)N[C@H](C(=O)N[C@@H](Cc1ccc(O)cc1)C(=O)O)CSSC[C@H](NC(=O)[C@H](Cc1ccc(O)cc1)NC(=O)[C@H](CCC(=O)O)NC3=O)C(=O)N2 [ONC0002236, linaclotide] (H-CCEYCCNPACTGCY-OH; disulfide 1-6, 2-10, 5-13)	72.91	
C=CCN.ClCC1CO1 (stereo not drawn) [ONC0004792, sevelamer hcl]	92.43	
CN1[C@@H]2CC[C@H]1C[C@@H](OC(=O)c1c[nH]c3ccccc13)C2.CN1[C@@H]2CC[C@H]1C[C@H](OC(=O)c1c[nH]c3ccccc13)C2 [ONC0003140, tropisetron]	83.9	
CC1(C)C(=O)N(c2ccc(C#N)c(C(F)(F)F)c2)C(=O)N1CCCCO [ONC0001028, ru 58841]	78.08	
CN(Cc1cccc(-c2ccccc2)c1)C(=O)Oc1ccc(-c2ccc(C(N)=O)cc2)cc1 [ONC0003622, wwl123]	91.12	
COC1=C[C@@H]2[C@@H]3Cc4ccc(OC)c(O)c4[C@]2(CCN3C)CC1=O [ONC0005014, sinomenine cucoline]	90.79	
COc1ccc(N(C(=O)Oc2c(C)cccc2C)c2ccnc(Nc3ccc(N4CCN(C)CC4)cc3)n2)c(OC)c1 [ONC0001319, wh4023]	109.2	
CCC1(c2ccccc2)C(=O)N(COC)C(=O)N(COC)C1=O [ONC0003244, eterobarb]	97.7	
CC(C)N(CCc1c[nH]c2ccccc12)C(C)C [ONC0004089, dipt]	117.6	
CCOC(=O)c1cncn1[C@H](C)c1ccccc1 [ONC0004128, etomidate]	104.1	
COc1cc2cc(c1Cl)N(C)C(=O)C[C@H](OC(=O)C(C)C)[C@]1(C)O[C@H]1[C@H](C)[C@@H]1C[C@@](O)(NC(=O)O1)[C@H](OC)/C=C/C=C(\C)C2 [ONC0000769, ansamitocin p3]	44.45	
OCC(O)[C@H]1O[C@@H]2O[C@H](C(Cl)(Cl)Cl)O[C@@H]2[C@H]1O (stereo partly drawn) [ONC0004285, chloralose]	88.6	
N#CCC(=O)c1ccccc1 [ONC0003704, cl225385]	88.41	
